# Experimental data published in the supplement of paper PMC9135407.
# Values joined by “and” are separate entries in the source; they are usually repeats but may differ in a detail not shown here. Identical values can stand only once. Counter-ions that a name gives are not always drawn. ± gives the standard deviation of the averaged measurements. The list shows a part of the results. Part of the spread comes from offsets between plates or batches.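 Primary human stellate myofibroblasts activated in culture; inactivation shown by regained lipid droplets. Readout: fraction of Hoechst-counted cells exceeding a per-plate Bodipy threshold, duplicate wells, each plate with DMSO negative and nortriptyline positive controls. Hits: control-normalized score beyond the plate's top-tenth-percentile nortriptyline wells, or among its three best wells. Final well concentrations unstated.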
# System: primary human hepatic stellate cells (donor 1)
# Test: percent Bodipy-positive cells; higher = more lipid droplet accumulation
# Settings: 48 h
# [1] = library stock concentration: 10 mM
# [2] = library stock concentration: 1 mM
# [3] = library stock concentration: 3.33 mM
smiles,measurement,setting,value
Cc1ncc(COP(=O)([O-])[O-])c(CN(CCN(CC(=O)O)Cc2c(COP(=O)([O-])O)cnc(C)c2O)CC(=O)O)c1O.[Mn].[Na+].[Na+].[Na+],percent Bodipy-positive cells,[1],41.8 ± 3.5%
COc1ccc2cccc(N3CCN(CCNC(=O)c4ccc(F)cc4)CC3)c2c1,percent Bodipy-positive cells,[1],40.31 ± 0.23%
CC(C)CC[C@@H](O)[C@@H](C)[C@H]1CC[C@H]2[C@@H]3CC=C4C[C@@H](O)CC[C@]4(C)[C@H]3CC[C@]12C [22(R)-hydroxy Cholesterol],percent Bodipy-positive cells,[2],11.71 ± 0.024%
CC(C)NC[C@@H](C(=O)N1CCN(c2ncnc3c2[C@H](C)C[C@H]3O)CC1)c1ccc(Cl)cc1,percent Bodipy-positive cells,[1],53.8 ± 3.1%
CC1=C(C/C=C(\C)CCC[C@H](C)CCC[C@H](C)CCCC(C)C)C(=O)c2ccccc2C1=O [Phylloquinone],percent Bodipy-positive cells,[1],11.1 ± 4%
CC1=C(C/C=C(\C)CCC[C@H](C)CCC[C@H](C)CCCC(C)C)C(=O)c2ccccc2C1=O [Phytonadione],percent Bodipy-positive cells,library stock concentration: 4.4 mM,1.44 ± 0.86%
CN1CCN(S(=O)(=O)c2ccc(-c3cnc(N)c(C(=O)Nc4cccnc4)n3)cc2)CC1,percent Bodipy-positive cells,[1],94.2 ± 2.1%
COc1ccc(CC(=O)NC(/N=C(\NC#N)Nc2cccc3ncccc23)C(C)(C)C)cc1OC (configuration not stated),percent Bodipy-positive cells,[1],13.1 ± 5.3%
O=C(O)C1(C(=O)O)CCC1.[NH2-].[NH2-].[Pt+2] [Carboplatin],percent Bodipy-positive cells,library stock concentration: 5.4 mM,18.3 ± 3.6%
same,percent Bodipy-positive cells,library stock concentration: 5.9 mM,6.64 ± 0.87%
CCOc1cc2ncc(C#N)c(Nc3ccc(F)c(Cl)c3)c2cc1NC(=O)C=CCN(C)C,percent Bodipy-positive cells,[1],97.3 ± 3.2%
CNCCC(Oc1ccc(C(F)(F)F)cc1)c1ccccc1.Cl (configuration not stated) [Fluoxetine hydrochloride],percent Bodipy-positive cells,[1],96.3 ± 3%
COC(=O)C(N)Cc1ccc(Cl)cc1 (racemic) [DL-p-Chlorophenylalanine methyl ester hydrochloride],percent Bodipy-positive cells,[1],38 ± 10%
NC(CCC(=O)NC(CSN=O)C(=O)NCC(=O)O)C(=O)O [S-Nitroso-L-glutathione],percent Bodipy-positive cells,[2],5.77 ± 1.1%
CC(=O)Nc1cccc(O)c1 [Metacetamol],percent Bodipy-positive cells,[1],41.6 ± 10%
Cc1cnc(C(=O)O)c[n+]1[O-] [Acipimox],percent Bodipy-positive cells,[3],4.32 ± 1.2%
same,percent Bodipy-positive cells,[1],7.86 ± 3.5%
same,percent Bodipy-positive cells,library stock concentration: 13 mM,7.86 ± 1.2%
O=C(c1cncc(Br)c1)N1CCC(N2CCCC2)CC1,percent Bodipy-positive cells,library stock concentration: 80 uM,31 ± 1.4%
same,percent Bodipy-positive cells,library stock concentration: 400 uM,30.5 ± 3.4%
same,percent Bodipy-positive cells,library stock concentration: 2 mM,26.9 ± 11%
same,percent Bodipy-positive cells,[3],22.5 ± 6.3%
same,percent Bodipy-positive cells,[1],31.2% and 28.1%
O=C(Nc1ccc([N+](=O)[O-])cc1O)Nc1ccccc1Br,percent Bodipy-positive cells,[2],23.6 ± 3.3%
same,percent Bodipy-positive cells,[1],27.51 ± 0.1%
O=c1c(O)c(-c2ccc(O)c(O)c2)oc2cc(O)cc(O)c12 [Quercetin],percent Bodipy-positive cells,[2],17.6 ± 7.6%
same,percent Bodipy-positive cells,[3],9.71 ± 0.63%
same,percent Bodipy-positive cells,[1],35.3% and 21% and 13.1%
O=c1c(O)c(-c2ccc(O)c(O)c2)oc2cc(O)cc(O)c12 [Quercetine dihydrate],percent Bodipy-positive cells,,51.9 ± 25%
O=c1c(O)c(-c2ccc(O)c(O)c2)oc2cc(O)cc(O)c12 [Quercetin dihydrate],percent Bodipy-positive cells,[1],23.8 ± 5.7%
O=c1c(O)c(-c2ccc(O)c(O)c2)oc2cc(O)cc(O)c12 [Quercetin Dihydrate],percent Bodipy-positive cells,[3],13.8 ± 5.5%
same,percent Bodipy-positive cells,[1],15.3 ± 1.7%
